We go through 1 substance from article PMC7054999.

Sequences of proteins named here, by UniProt entry; tags and fusion partners are left off.
UniProt P06730: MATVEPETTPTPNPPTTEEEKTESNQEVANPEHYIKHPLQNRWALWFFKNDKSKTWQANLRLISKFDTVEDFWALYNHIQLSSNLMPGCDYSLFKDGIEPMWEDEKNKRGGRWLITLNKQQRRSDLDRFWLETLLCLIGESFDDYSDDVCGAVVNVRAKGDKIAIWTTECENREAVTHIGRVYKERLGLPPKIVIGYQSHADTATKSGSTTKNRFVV
UniProt P55884: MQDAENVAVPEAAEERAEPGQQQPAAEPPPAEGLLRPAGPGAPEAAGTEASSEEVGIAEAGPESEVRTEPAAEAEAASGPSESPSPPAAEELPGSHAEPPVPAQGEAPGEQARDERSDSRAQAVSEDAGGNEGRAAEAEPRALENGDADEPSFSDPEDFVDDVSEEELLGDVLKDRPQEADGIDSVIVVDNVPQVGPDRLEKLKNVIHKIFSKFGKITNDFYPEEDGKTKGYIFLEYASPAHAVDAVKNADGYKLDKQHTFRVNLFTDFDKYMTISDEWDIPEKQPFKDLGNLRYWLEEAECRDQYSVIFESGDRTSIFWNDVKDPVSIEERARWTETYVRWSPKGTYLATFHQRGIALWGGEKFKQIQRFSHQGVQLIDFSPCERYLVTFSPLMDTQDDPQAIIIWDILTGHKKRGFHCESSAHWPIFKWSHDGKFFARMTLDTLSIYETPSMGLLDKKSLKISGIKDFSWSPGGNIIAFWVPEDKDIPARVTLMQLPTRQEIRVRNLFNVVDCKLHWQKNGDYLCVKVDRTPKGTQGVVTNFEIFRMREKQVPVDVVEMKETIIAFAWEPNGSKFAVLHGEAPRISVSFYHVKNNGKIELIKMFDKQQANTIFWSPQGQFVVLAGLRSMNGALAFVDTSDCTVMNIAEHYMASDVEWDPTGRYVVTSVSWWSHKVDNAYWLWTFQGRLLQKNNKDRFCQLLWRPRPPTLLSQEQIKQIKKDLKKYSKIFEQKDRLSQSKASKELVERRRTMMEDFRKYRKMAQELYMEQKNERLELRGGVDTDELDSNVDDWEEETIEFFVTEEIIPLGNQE

Results are given in words; binding and its absence hold for the method and conditions named. In cells and extracts the contact can be indirect. Some entries that bind do so weakly or less than the wild type.

Experiment [1] concerns the target eIF4E (human (endogenous in HeLa)) (UniProt P06730). In words: pull-down; cap pulldown: cytoplasmic lysates of HeLa cells treated with DMSO or Ro3306 (10 µM, 4 or 16 h); γ-aminophenyl-m7GTP agarose beads overnight at 4°C, eIF4E held by the cap analogue; 150 mM NaCl, 1 mM EDTA, NP-40 buffers; Western blot. (In general: Immunoblotting shows a protein as a band on a membrane.)

Experiment [2] has the same target. The experiment can be described thus: pull-down; cap pulldown as a1, cytoplasmic lysates of HeLa cells treated with Torin1 (200 nM, mTORC1 inhibition); γ-aminophenyl-m7GTP agarose beads; Western blot.

As for eIF3B (from UniProt P55884 1-814), the binding entry is given as “binds” in experiment [1] and “no binding (condition: cells treated with Torin1 (200 nM))” in experiment [2].
